# Measured values from patent US4701459A, “7-amino-1,3-dihydro-2H-imidazo[4,5-b]quinolin 2-ones and method for inhibiting phosphodiesterase and blood platelet aggregation” (Bristol-Myers Company, priority 1986, dated 1987).
# pIC50: −log10 of the molar value. At least one compound was matched to its structure with a doubt left.
# Tested on: cAMP phosphodiesterase (human platelets)
# Experiment: Inhibition of Cyclic AMP Phosphodiesterase
# Assay type: biochemical
# Settings: PDE from human platelets
# Procedure: Inhibition of Cyclic AMP Phosphodiesterase
# This assay is carried out essentially as described by Thompson, et al., Methods in Enzymology, 38, 205-212 (1974). Briefly, tritium labeled cyclic adenosine monophosphate (cAMP) is incubated with a phosphodiesterase (PDE) enzynme obtained from human platelets which converts a portion of the cAMP to 5'AMP in culture tubes. This reaction is terminated by submerging the tubes in a boiling water bath after which they are placed on ice and an aliquot of snake venom is added to each tube. This, during a second incubation, converts the 5'AMP to adenosine. Ion exchange resin is added to bind the remaining cyclic AMP. The tubes are centrifuged to sediment the resin and a portion of the clear supernatent (which contains radioactive adenosine) is counted in a liquid scintillation counter. The cAMP phosphodiesterase inhibition activity of a test agent is determined by pre-incubating the PDE enzyme preparation with the test agent.
smiles,measurement,value
"CCN(CC)c1ccc2nc3[nH]c(=O)[nH]c3cc2c1 [Example 9, 7-(Diethylamino)-1,3-dihydro-2H-imidazo[4,5-b]quinolin-2-one]",pIC50,7.15
"O=c1[nH]c2cc3cc(N4CCN(c5ccccc5)CC4)ccc3nc2[nH]1 [Example 16, 1,3-Dihydro-7-(4-phenyl-1-piperazinyl)-2H-imidazo[4,5-b]quinolin-2-one]",pIC50,5.30
